Assay results reported in article PMC5612983.
These are yes or no findings as the source states them, for the method shown. In cells and extracts the contact can be indirect. Some entries that bind do so weakly or less than the wild type.

T1: contactin 1 (rat (endogenous in PC12)) (UniProt Q63198)
T1 sequence: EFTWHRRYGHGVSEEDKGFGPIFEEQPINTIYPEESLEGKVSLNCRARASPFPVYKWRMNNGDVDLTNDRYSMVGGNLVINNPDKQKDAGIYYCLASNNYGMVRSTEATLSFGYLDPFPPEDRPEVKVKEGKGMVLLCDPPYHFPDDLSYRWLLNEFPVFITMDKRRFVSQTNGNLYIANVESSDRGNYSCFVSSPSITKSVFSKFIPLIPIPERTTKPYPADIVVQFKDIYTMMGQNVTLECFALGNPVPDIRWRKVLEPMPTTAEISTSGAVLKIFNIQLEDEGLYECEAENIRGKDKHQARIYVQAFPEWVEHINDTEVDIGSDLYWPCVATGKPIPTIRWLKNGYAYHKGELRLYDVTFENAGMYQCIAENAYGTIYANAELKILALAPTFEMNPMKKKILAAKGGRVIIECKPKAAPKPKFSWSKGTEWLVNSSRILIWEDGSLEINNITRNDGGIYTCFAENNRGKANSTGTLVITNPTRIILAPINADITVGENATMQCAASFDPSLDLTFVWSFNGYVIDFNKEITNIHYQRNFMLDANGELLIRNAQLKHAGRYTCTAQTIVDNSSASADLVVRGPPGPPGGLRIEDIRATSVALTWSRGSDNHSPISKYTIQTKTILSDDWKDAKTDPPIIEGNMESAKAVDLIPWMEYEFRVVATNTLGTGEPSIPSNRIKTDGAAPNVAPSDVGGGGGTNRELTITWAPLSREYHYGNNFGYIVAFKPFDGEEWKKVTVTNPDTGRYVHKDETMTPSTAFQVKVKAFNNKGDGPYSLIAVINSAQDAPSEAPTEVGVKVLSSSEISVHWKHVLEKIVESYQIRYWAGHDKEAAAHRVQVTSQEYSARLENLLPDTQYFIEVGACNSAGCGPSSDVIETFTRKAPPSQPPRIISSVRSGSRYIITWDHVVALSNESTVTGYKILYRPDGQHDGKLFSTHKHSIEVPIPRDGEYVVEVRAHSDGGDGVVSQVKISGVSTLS

T2: galectin-4 (rat (endogenous in PC12)) (UniProt P38552)
T2 sequence: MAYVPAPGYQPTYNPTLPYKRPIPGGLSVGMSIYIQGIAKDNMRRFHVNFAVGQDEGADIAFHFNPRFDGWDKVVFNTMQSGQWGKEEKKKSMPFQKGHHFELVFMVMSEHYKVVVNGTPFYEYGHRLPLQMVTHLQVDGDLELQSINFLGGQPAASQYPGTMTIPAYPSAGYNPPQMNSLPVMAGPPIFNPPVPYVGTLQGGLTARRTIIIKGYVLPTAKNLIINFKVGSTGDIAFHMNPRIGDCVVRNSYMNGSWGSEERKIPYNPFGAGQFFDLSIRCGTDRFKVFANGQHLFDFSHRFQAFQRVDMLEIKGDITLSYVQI


Experiments:
[1] = biological target: T1, contactin 1 (rat (endogenous in PC12)); experiment: co-IP; PC12 cells reversibly cross-linked with DSP, lysed in PBS, 5 mM EDTA, 0.5% Triton X-100; supernatants incubated with anti-Gal-4 or anti-contactin 1 antibodies at 4 °C for 18 hours, bound to protein-A- or protein-G-Sepharose; SDS-PAGE and WB for contactin 1 or Gal-4
[2] = biological target: T2, galectin-4 (rat (endogenous in PC12)); experiment: as above

binding [1] | binding [2] | Binder
binds | – | galectin-4 (protein, UniProt P38552 1-324) MAYVPAPGYQPTYNPTLPYKRPIPGGLSVGMSIYIQGIAKDNMRRFHVNFAVGQDEGADIAFHFNPRFDGWDKVVFNTMQSGQWGKEEKKKSMPFQKGHHFELVFMVMSEHYKVVVNGTPFYEYGHRLPLQMVTHLQVDGDLELQSINFLGGQPAASQYPGTMTIPAYPSAGYNPPQMNSLPVMAGPPIFNPPVPYVGTLQGGLTARRTIIIKGYVLPTAKNLIINFKVGSTGDIAFHMNPRIGDCVVRNSYMNGSWGSEERKIPYNPFGAGQFFDLSIRCGTDRFKVFANGQHLFDFSHRFQAFQRVDMLEIKGDITLSYVQI
– | binds | contactin 1 (protein, UniProt Q63198 21-1001) EFTWHRRYGHGVSEEDKGFGPIFEEQPINTIYPEESLEGKVSLNCRARASPFPVYKWRMNNGDVDLTNDRYSMVGGNLVINNPDKQKDAGIYYCLASNNYGMVRSTEATLSFGYLDPFPPEDRPEVKVKEGKGMVLLCDPPYHFPDDLSYRWLLNEFPVFITMDKRRFVSQTNGNLYIANVESSDRGNYSCFVSSPSITKSVFSKFIPLIPIPERTTKPYPADIVVQFKDIYTMMGQNVTLECFALGNPVPDIRWRKVLEPMPTTAEISTSGAVLKIFNIQLEDEGLYECEAENIRGKDKHQARIYVQAFPEWVEHINDTEVDIGSDLYWPCVATGKPIPTIRWLKNGYAYHKGELRLYDVTFENAGMYQCIAENAYGTIYANAELKILALAPTFEMNPMKKKILAAKGGRVIIECKPKAAPKPKFSWSKGTEWLVNSSRILIWEDGSLEINNITRNDGGIYTCFAENNRGKANSTGTLVITNPTRIILAPINADITVGENATMQCAASFDPSLDLTFVWSFNGYVIDFNKEITNIHYQRNFMLDANGELLIRNAQLKHAGRYTCTAQTIVDNSSASADLVVRGPPGPPGGLRIEDIRATSVALTWSRGSDNHSPISKYTIQTKTILSDDWKDAKTDPPIIEGNMESAKAVDLIPWMEYEFRVVATNTLGTGEPSIPSNRIKTDGAAPNVAPSDVGGGGGTNRELTITWAPLSREYHYGNNFGYIVAFKPFDGEEWKKVTVTNPDTGRYVHKDETMTPSTAFQVKVKAFNNKGDGPYSLIAVINSAQDAPSEAPTEVGVKVLSSSEISVHWKHVLEKIVESYQIRYWAGHDKEAAAHRVQVTSQEYSARLENLLPDTQYFIEVGACNSAGCGPSSDVIETFTRKAPPSQPPRIISSVRSGSRYIITWDHVVALSNESTVTGYKILYRPDGQHDGKLFSTHKHSIEVPIPRDGEYVVEVRAHSDGGDGVVSQVKISGVSTLS
